## Library screen at single concentrations

Protein sequences, listed by entry. Tags and fused reporters are not part of them. Residues count along the entry.
UniProt Q8IDJ8, 1-583: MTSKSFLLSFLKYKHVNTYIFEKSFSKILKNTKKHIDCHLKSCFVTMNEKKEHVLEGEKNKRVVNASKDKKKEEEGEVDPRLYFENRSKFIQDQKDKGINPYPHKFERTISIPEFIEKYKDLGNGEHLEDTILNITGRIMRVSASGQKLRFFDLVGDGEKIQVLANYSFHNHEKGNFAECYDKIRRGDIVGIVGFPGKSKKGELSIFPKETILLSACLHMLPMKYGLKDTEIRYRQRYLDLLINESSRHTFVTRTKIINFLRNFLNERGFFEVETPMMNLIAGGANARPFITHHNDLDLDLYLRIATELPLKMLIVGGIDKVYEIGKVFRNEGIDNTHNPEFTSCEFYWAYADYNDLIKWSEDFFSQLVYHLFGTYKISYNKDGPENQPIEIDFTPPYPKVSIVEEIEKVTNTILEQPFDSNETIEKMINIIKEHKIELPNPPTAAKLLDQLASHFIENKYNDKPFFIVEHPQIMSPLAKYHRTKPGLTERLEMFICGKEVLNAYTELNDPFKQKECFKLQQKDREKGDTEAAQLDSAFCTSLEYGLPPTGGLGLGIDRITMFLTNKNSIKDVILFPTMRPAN

From ChEMBL document CHEMBL3988442, “University of Dundee, Small-Polar-MMV Screening Library” (2021).

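Lysine-tRNA ligase, Plasmodium falciparum 3D7 (UniProt Q8IDJ8). Enzyme assay of the cytosolic lysyl-tRNA synthetase in 384-well plates, read by luminescence. Compounds at 30 µM. Higher reads as stronger inhibition, judged from the few compounds that gave an IC50. Of about 69,000 compounds tested this way, about 49 (0.071%) reached 50% or more in at least one test.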

Values are the deposited “Percent Effect”, in %.
The record does not define 0% and 100%; most values in the screen are far below 50% and negative numbers occur (in some assays of this library far below -100).
The compounds are a random part of those screened.

* CCc1noc(C(C)Sc2nnc(C3CC3)n2CC(N)=O)n1 (stereo not shown) : 5.213%
* CC1=Nc2c(c(O)nn2C(C)C)C(c2cn(C)nc2C)S1 (stereo not shown) : -3.805%
* CCc1c(C(=O)NCC2CCS(=O)(=O)C2)cnn1-c1ccccc1 (stereo not shown) : -0.1406%
* CNC(=O)[C@@H]1C[C@H]2CN(Cc3csc(C)n3)C[C@H]2N1C(C)C : 4.101%
* Cc1cnn(CC2CCCN2C(=O)c2ccc3c(c2)nnn3C)c1 (stereo not shown) : -5.542%
* Cc1cc(C(=O)N2CCCCC2c2nc3cc(F)ccc3[nH]2)nn1C (stereo not shown) : 10.31%
* Cc1cc(C)n(C2CCCN(C(=O)C3=NN(C)C(=O)CC3)C2)n1 (stereo not shown) : 7.465%
* Cn1cnc(S(=O)(=O)N2CCO[C@H]3[C@H](OCC4CC4)CC[C@@H]32)c1 : -1.916%
* CC(C)N1CCCC(C(=O)N2CCN(c3cnn(C)c(=O)c3)CC2)C1 (stereo not shown) : -2.309%
* CCC(CC)C(=O)c1c[nH]c(C(=O)N2CCN(c3ccccc3)CC2)c1 : 0.4737%
* Cc1ccc(-c2cc(N)c(=O)n(C(C)C(=O)NCC3CCCCC3)n2)s1 (stereo not shown) : 0.3423%
* CN(C)CC(=O)N1C[C@H]2CCC[C@@]2(COc2ccccn2)C1 : 4.085%
* Cc1nccn1Cc1nnc(C2CCCN(Cc3cccnc3)C2)n1C (stereo not shown) : 0.3822%
* O=C(NCC1CC1)[C@@H]1CCO[C@@H]2CCN(c3ncccn3)C[C@@H]21 : 1.277%
* Nc1cnc(-c2ccc(F)cc2Cl)cn1 : -3.786%
* Cc1nc(CN2CCN(c3ccc(Cl)cn3)CC2)no1 : 6.527%
* CN1CCOC(C(=O)Nc2ccc3c(c2)nc(C2CC2)n3C)C1 (stereo not shown) : 1.065%
* CC(Nc1cccc(CN2CCOC2=O)c1)C(=O)NC(=O)NC(C)(C)C (stereo not shown) : 1.707%
* Cc1oncc1C(=O)N[C@@H]1CN(Cc2ccoc2)C[C@@H]2CCCO[C@@H]21 : -2.378%
* COc1ccc(S(=O)(=O)NC(=O)c2cscn2)cc1C : 1.382%
* Cc1cccc(C2(CNC(=O)c3ccnc(N(C)C)c3)CCOCC2)c1 : 1.082%
* Cc1n[nH]c(C)c1CCC(=O)N1CCC(O)(CN2CCN(C)CC2)C1 (stereo not shown) : 0.4695%
* CC(C)CC(NC(=O)OC(C)(C)C)C(N)=O (stereo not shown) : -1.895%
* O=C(NCCn1ccnc1)NCc1ccc(N2CCCCCC2)nc1 : 3.933%
* Cc1ccc(-c2ccnc(N3CCC4(CC3)CNC(=O)C4)n2)c(C)n1 : 2.576%
* Cc1nc(C)n(CC2CCCN2CC(=O)Nc2cccnc2)n1 (stereo not shown) : 7.429%
* Cc1ccc(-c2nc(CN(Cc3cccs3)CC3CCCO3)no2)cc1 (stereo not shown) : 2.482%
* O=C(CC1CCN(CCc2ccccc2)CC1)NC1CCOCC1 : 0.6828%
* O=C(c1cnc(NCC2CCCO2)c(Cl)c1)N1CCCCC1 (stereo not shown) : -1.15%
* Cc1[nH]nc(CCC(=O)N2CCc3c(nc[nH]c3=O)C2)c1C : -2.829%
* O=C1NC2(CCNCC2)CC1c1ccccc1 (stereo not shown) : -2.687%
* COc1ccccc1CC(=O)NC1CCCc2cn[nH]c21 (stereo not shown) : 4.951%

Repeated from the top, 3 entries:

* CCc1noc(C(C)Sc2nnc(C3CC3)n2CC(N)=O)n1 (stereo not shown) : 5.213%
* CC1=Nc2c(c(O)nn2C(C)C)C(c2cn(C)nc2C)S1 (stereo not shown) : -3.805%
* CCc1c(C(=O)NCC2CCS(=O)(=O)C2)cnn1-c1ccccc1 (stereo not shown) : -0.1406%